PubChem BioAssay AID504744 – Drosophila RNAi Screening Center – 2011
Purpose: 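Identify dsRNAs that increase or decrease phospho-dAkt after insulin treatment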 (primary screen). Cells: Drosophila Kc167 cells. Reagent: long dsRNA against Drosophila genes, 250 ng dsRNA per well of a 384-well plate. Time to read-out: 3 days of knock-down, then overnight serum-free starvation before stimulation. Conditions: bovine insulin at 387 nM for 10 minutes after 12 h without serum. Measurement: 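In-cell antibody fluorescence for phospho-dAkt in each well over DNA-dye signal, with log2 residuals expressed as z-scores adjusted for cell count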. Call rule: 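Under insulin, a gene counts as a hit if the average z-score of two replicates lies above 2.5 or below -2.5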.
The screen tested about 23,000 reagents; shown is a random part of those with a known target gene and a result. Over the whole deposit, 98 (0.43%) got an active call. 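Only hit calls are given; the phospho-dAkt signals, z-scores and hit direction were not deposited.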 A plus sign joins genes that one reagent is predicted to hit.

The first 5 entries, to show the layout:
Target gene,dsRNA,activity call
Adgf-B (GeneID 39975),DRSC10568,inactive
Tango8 (GeneID 50210),DRSC06474,inactive
Mys45A (GeneID 35925),DRSC07067,inactive
CG9313 (GeneID 37374),DRSC04540,inactive
lt (GeneID 3355130),DRSC03759,inactive

The listing, repeating the preview:
Target gene,dsRNA,activity call
Adgf-B (GeneID 39975),DRSC10568,inactive
Tango8 (GeneID 50210),DRSC06474,inactive
Mys45A (GeneID 35925),DRSC07067,inactive
CG9313 (GeneID 37374),DRSC04540,inactive
lt (GeneID 3355130),DRSC03759,inactive
TwdlU (GeneID 5740279),DRSC12224,inactive
CG6709 + Hez,DRSC10165,inactive
CG6709 + Hez,DRSC10698,inactive
ste24b (GeneID 36907),DRSC07315,inactive
Ugt302K1 (GeneID 53502),DRSC16086,inactive
mus304 (GeneID 40003),DRSC11372,inactive
mRpL19 (GeneID 41028),DRSC16367,inactive
mRpL19 (GeneID 41028),DRSC21618,inactive
Mapmodulin (GeneID 37043),DRSC06956,inactive
CG9368 (GeneID 40135),DRSC11067,inactive
Paics (GeneID 32228),DRSC20305,inactive
Lgr4 (GeneID 5740505),DRSC18969,inactive
Lgr4 (GeneID 5740505),DRSC18970,inactive
Lgr4 (GeneID 5740505),DRSC19884,inactive
CG31226 (GeneID 318633),DRSC21724,inactive
CG9962 (GeneID 33448),DRSC00739,inactive
Lipt2 (GeneID 40565),DRSC12338,inactive
Lipt2 (GeneID 40565),DRSC22610,inactive
Mpcp1 (GeneID 37297),DRSC07337,inactive
Agpat4 (GeneID 39819),DRSC10446,inactive
CG12355 (GeneID 2768954),DRSC09381,inactive
CG12355 (GeneID 2768954),DRSC09883,inactive
Obp56d (GeneID 37266),DRSC06064,inactive
Argk2 (GeneID 39040),DRSC10483,inactive
CG3817 (GeneID 41805),DRSC15515,inactive
Pcif1 (GeneID 40295),DRSC11655,inactive
Charon (GeneID 33303),DRSC00679,inactive
Toll-4 (GeneID 34235),DRSC03458,inactive
CG4598 (GeneID 34315),DRSC02763,inactive
Ir67a (GeneID 39110),DRSC09897,inactive
CG9812 (GeneID 37709),DRSC04566,inactive
ItgaPS5 (GeneID 37732),DRSC04501,inactive
CG11842 (GeneID 43431),DRSC14400,inactive
Cubn2 (GeneID 39334),DRSC10561,inactive
Cubn2 (GeneID 39334),DRSC22044,inactive
Ufd4 (GeneID 34378),DRSC02871,inactive
l(2)dtl (GeneID 46326),DRSC04697,inactive
Kr-h2 (GeneID 33859),DRSC03356,inactive
Rab4 + CG42239,DRSC05667,inactive
RpS5a (GeneID 32700),DRSC20282,inactive
CG6000 (GeneID 42851),DRSC15938,inactive
Wdr82 (GeneID 34153),DRSC02595,inactive
Wdr82 (GeneID 34153),DRSC21723,inactive
Lon (GeneID 40138),DRSC11049,inactive
Hsp70Aa + Hsp70Ab,DRSC21246,inactive
CG7202 (GeneID 40376),DRSC11818,inactive
Prp40 (GeneID 33513),DRSC00612,inactive
Pez (GeneID 33882),DRSC03397,inactive
Gclc (GeneID 53581),DRSC18666,inactive
CYLD (GeneID 34380),DRSC02870,inactive
CG42827 + CG42828,DRSC16116,inactive
CG2577 (GeneID 32188),DRSC19863,inactive
CG3857 (GeneID 2768908),DRSC18542,inactive
bocks (GeneID 41162),DRSC16489,inactive
Or30a (GeneID 34236),DRSC03385,inactive
CG14391 (GeneID 41567),DRSC14850,inactive
Taz (GeneID 36405),DRSC07704,inactive
Taz (GeneID 36405),DRSC22625,inactive
Smox (GeneID 31738),DRSC18716,inactive
